Measurements: PMC2048962
Results are given in words; binding and its absence hold for the method and conditions named. Binding seen in cells or lysates may run through a third protein. Some entries that bind do so weakly or less than the wild type. Sequences can lack the tags named with a protein.

Experiments:
[1] = biological target: T1, HA-tagged wild-type human R7-binding protein (R7BP) (human) (UniProt Q6MZT1); assay: co-IP; anti-HA immunoprecipitation from detergent lysate of transfected PC12 cells; buffer A (250 mM NaCl, 50 mM Tris pH 8.0, 5 mM EDTA, 0.5 % NP-40), overnight at 4°C, protein G-Sepharose; immunoblot with anti-HA, anti-RGS7 and anti-Gβ5 (ATDG)
T1 sequence: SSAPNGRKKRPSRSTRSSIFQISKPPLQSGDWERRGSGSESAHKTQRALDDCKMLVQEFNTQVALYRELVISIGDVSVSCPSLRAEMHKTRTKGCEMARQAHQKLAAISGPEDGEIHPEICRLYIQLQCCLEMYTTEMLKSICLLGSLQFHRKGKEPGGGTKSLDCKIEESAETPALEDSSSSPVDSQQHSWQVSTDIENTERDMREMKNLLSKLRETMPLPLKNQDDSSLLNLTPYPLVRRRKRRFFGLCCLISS

[2] = biological target: T2, HA-tagged palmitoylation-deficient R7BP C252S/C253S double mutant (human) (UniProt Q6MZT1); assay: as above
T2 sequence: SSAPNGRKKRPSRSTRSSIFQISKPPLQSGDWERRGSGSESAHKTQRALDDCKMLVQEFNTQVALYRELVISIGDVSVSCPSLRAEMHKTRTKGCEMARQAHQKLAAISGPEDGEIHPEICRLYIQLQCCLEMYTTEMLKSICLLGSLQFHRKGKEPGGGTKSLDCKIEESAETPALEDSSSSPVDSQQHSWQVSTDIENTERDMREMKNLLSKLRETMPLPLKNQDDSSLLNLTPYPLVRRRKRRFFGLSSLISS

B1: endogenous Gβ5/RGS7 protein complex of PC12 cells (complex, UniProt P62882 1-353; P49803 1-477)
chain 1: MATDGLHENETLASLKSEAESLKGKLEEERAKLHDVELHQVAERVEALGQFVMKTRRTLKGHGNKVLCMDWCKDKRRIVSSSQDGKVIVWDSFTTNKEHAVTMPCTWVMACAYAPSGCAIACGGLDNKCSVYPLTFDKNENMAAKKKSVAMHTNYLSACSFTNSDMQILTASGDGTCALWDVESGQLLQSFHGHGADVLCLDLAPSETGNTFVSGGCDKKAMVWDMRSGQCVQAFETHESDVNSVRYYPSGDAFASGSDDATCRLYDLRADREVAIYSKESIIFGASSVDFSLSGRLLFAGYNDYTINVWDVLKGSRVSILFGHENRVSTLRVSPDGTAFCSGSWDHTLRVWA
chain 2: MAQGNNYGQTSNGVAEESPNMLVYRKMEDVIARMQDEKNGIPIRTVKSFLSKIPSVFSGSDIVQWLIKNLTIEDPVEALHLGTLMAAHGYFFPISDHVLTLKDDGTFYRFQTPYFWPSNCWEPENTDYAVYLCKRTMQNKARLELADYEAESLARLQRAFARKWEFIFMQAEAQAKVDKKRDKIERKILDSQERAFWDVHRPVPGCVNTTEVDIKKSSRMRNPHKTRKSVYGLQNDIRSHSPTHTPTPETKPPTEDELHRQIKYWQIQLDRHRLKMSKVADSLLSYTEQYVEYDPFLVPPDPSNPWLSDDTTFWELEASKEPSQQRVKRWGFGMDEALKDPVGREQFLKFLESEFSSENLRFWLAVEDLKKRPIREVPSRVQEIWQEFLAPGAPSAINLDSKSYDKTTQNVKEPGRYTFEDAQEHIYKLMKSDSYPRFIRSSAYQELLQAKRKGRNIPIFPCHKNCTPTLRASTNLL
- binding [1]: binds
- binding [2]: binds
